# The list shows a part of the results. Further columns of the screen follow, without active or inactive calls. The list favours compounds with an active or inconclusive main result. Potencies come from curve fits of mixed quality, noted in brackets.
# Assay: qHTS Assay for Modulators of Lamin A Splicing
# Details: HeLa LMNA splicing GFP/RFP minigene ratio, 48 h
# In short: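 S3 HeLa cells stably expressing lamin A-EGFP splicing minigene plus DsRed2, 600 cells/well, 48 h compound exposure at 37C. Laser-scanning cytometry; analysed as GFP (500-530 nm)/RFP (575-640 nm) total intensity ratio; 0.5% DMSO vehicle.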
# [1] = measured here: GFP splicing reporter channel
# [2] = measured here: RFP viability control channel
Compound,AC50 [1],AC50 [2]
CC(Cc1cccs1)NC(=S)Nc1ccc(Cl)cc1 (centres undefined),"15.8 µM [rising, partial curve]","25.1 µM [rising, partial curve]"
COc1ccc(C(=O)Nc2ccc(S(=O)(=O)Nc3cc(C)nc(C)n3)cc2)c(OC)c1,"14.1 µM [rising, partial curve]","25.1 µM [rising, single point]"
CN(C)c1ccc(/C=C/C(=O)c2ccc(C(C)(C)C)cc2)cc1[N+](=O)[O-],"11.2 µM [rising, single point]","14.1 µM [rising, single point]"
CC(=O)Nc1ccc(S(=O)(=O)Oc2ccc(C(=S)N3CCCCC3)cc2)cc1,"1 µM [rising, full curve]","6.31 µM [rising, partial curve]"
Cn1cccc1-c1nc2ccccc2n1Cc1ccccc1,"25.1 µM [rising, single point]","17.8 µM [rising, single point]"
COCCNc1nc2c(c(=O)n(C)c(=O)n2C)n1Cc1cccc(C(F)(F)F)c1,,"12.6 µM [rising, single point]"
COc1ccc(OC)c(NC(=O)CN(C)S(=O)(=O)c2ccc3nc(C)sc3c2)c1,"11.2 µM [rising, partial curve]","10 µM [rising, partial curve]"
COc1cc(CC(=O)Nc2ccc(Cl)c(C(F)(F)F)c2)cc(OC)c1OC,"8.91 µM [rising, partial curve]",
O=C(O)c1cc(Sc2ccc(Br)cc2)nc2ccccc12,"0.355 µM [falling, full curve]",
CCC1=Nc2cc(C(=O)NCc3ccco3)ccc2Sc2ccc(Cl)cc21,,"2.24 µM [rising, full curve]"
O=C(CCCN1C(=O)/C(=C/c2cccs2)SC1=S)Nc1ccc(O)c(C(=O)O)c1,"0.02 µM [rising, full curve, poor fit]",
Nc1c(C(=O)c2ccccc2)sc(Nc2ccccc2)c1S(=O)(=O)c1ccccc1,"6.31 µM [rising, partial curve, poor fit]",
CC1CN=C(N(C(=O)Nc2ccccc2)c2ccc(S(=O)(=O)N3CCOCC3)cc2)S1 (centres undefined),"5.01 µM [rising, partial curve, poor fit]","20 µM [rising, single point]"
COc1ccc(CNC(=O)CN(CCC(C)C)S(=O)(=O)c2ccc3c(c2)OCCO3)cc1,,"35.5 µM [rising, single point]"
O=C(c1cc(COc2c(F)cccc2F)on1)N1CCc2ccccc2C1,,"35.5 µM [falling, partial curve, poor fit]"
Cc1ccc(NC(=S)N(CCCN2CCOCC2)Cc2cccnc2)cc1C,"12.6 µM [falling, partial curve]",
COc1ccc(CCN(C)C(=O)CSc2nccn2C)cc1OC,,"3.55 µM [rising, single point]"
CCOC(=O)/C(=C/C=C1\Sc2cc(OCC)c(OCC)cc2N1CC)C(C)=O,"22.4 µM [falling, partial curve]","10 µM [falling, partial curve]"
CCOC(=O)N1CCC(=NNc2ccnc3cc(Cl)ccc23)CC1,"35.5 µM [falling, partial curve]",
O=C(Cc1ccccc1)Nc1nnc(SCC(=O)NC2CCCC2)s1,"0.00398 µM [rising, full curve, poor fit]",
Cc1cccc(C(=O)N2CCC(c3nc4ccccc4s3)CC2)c1,"0.562 µM [falling, partial curve]","0.562 µM [falling, full curve, poor fit]"
COc1cc(NC(=O)N2CCC3(CC2)Nc2ccccc2-n2cccc23)cc(OC)c1OC,"20 µM [rising, partial curve, poor fit]","20 µM [rising, partial curve, poor fit]"
C=C(C)CNC(=S)N/N=C/c1ccc([N+](=O)[O-])cc1,,"0.0224 µM [falling, full curve, poor fit]"
Cc1nsc(Nc2ccc([N+](=O)[O-])cc2)c1C#N,"3.98 µM [falling, partial curve]","1.12 µM [falling, full curve]"
Cc1noc(C)c1COc1cccc(C(=O)NCCc2c[nH]c3ccccc23)c1,,"11.2 µM [rising, partial curve]"
CCOC(=O)C(=O)Nc1nnc2n1CCS2,,"0.0224 µM [falling, full curve, poor fit]"
CCN(CC)C(=O)c1ccc(CS(=O)(=O)c2ccc(OC)cc2)o1,,"35.5 µM [rising, single point]"
CN(C)C(=O)c1ccc(-c2ccc3ncnc(NCc4cccs4)c3c2)cc1,"20 µM [falling, partial curve]",

Compound,AC50 [1],AC50 [2]
Cc1nc(N2CCCC2)ncc1C(=O)N1CCN(c2ccc(Cl)cc2)CC1,"15.8 µM [falling, partial curve, poor fit]",
CCOC(=O)C1=C(N2CCCCC2)c2cc3c(n2C1=O)CCCC3,"8.91 µM [rising, partial curve]","11.2 µM [rising, single point]"
Cc1nc2c(C(=O)NCc3ccccc3Cl)cnn2c(C)c1Cc1ccccc1,,"0.0141 µM [rising, full curve, poor fit]"
Cc1c(C(=O)OCC(=O)NCCN2C(=O)CSC2=O)oc2c1ccc1ccccc12,"14.1 µM [rising, single point]","31.6 µM [rising, single point]"
CC(C)c1cc(C(=O)NNC(=S)NCc2ccco2)c(O)c(C(C)C)c1,,"8.91 µM [rising, partial curve]"
Cc1ccc(Cl)cc1N1CCN(C(=O)CCS(=O)(=O)c2cccc3nonc23)CC1,,"17.8 µM [rising, single point]"
CC12CC(NC(=O)N1c1ccc(C(=O)N3CCN(c4ccc(F)cc4)CC3)cc1)c1ccccc1O2 (centres undefined),,"10 µM [rising, partial curve, poor fit]"
Cc1cccc(OCCNC(=O)c2cccc(Oc3ccc(C(F)(F)F)cc3[N+](=O)[O-])c2)c1,"12.6 µM [rising, partial curve]","25.1 µM [rising, partial curve]"
O=C(NCCO)c1ccc(CSc2nc3ccccc3[nH]2)cc1,,"35.5 µM [rising, single point]"
CC(C)(C)C(=O)NCCN1C(=O)S/C(=C\c2ccc([N+](=O)[O-])cc2)C1=O,,"22.4 µM [rising, single point]"
COc1ccc(Cl)c(Cn2c(NCC(C)O)nc3c2c(=O)n(C)c(=O)n3C)c1 (centres undefined),"28.2 µM [rising, single point]","31.6 µM [rising, single point]"
COC(=O)C1=C(C)N(C)C(=O)NC1c1ccc(O)c(Cl)c1 (centres undefined),,"1.26 µM [falling, full curve]"
CCOc1cc(C)c(S(=O)(=O)NC2CCCCC2)cc1C,,"20 µM [rising, single point]"
COCCNC(=O)CSc1nc2cc3c(cc2c(=O)n1Cc1ccc(C(=O)NCCc2ccc(OC)c(OC)c2)cc1)OCO3,"15.8 µM [falling, single point]","35.5 µM [falling, single point]"
CC1C/C(=N\Nc2ccc(S(N)(=O)=O)cc2[N+](=O)[O-])CC(C)(C)C1 (centres undefined),,"35.5 µM [rising, single point]"
CCN(CC)S(=O)(=O)c1ccc(C)c(NC(=S)Nc2cccc(S(=O)(=O)N3CCCCCC3)c2)c1,,"14.1 µM [rising, partial curve]"
Brc1cccc(/C=N/Nc2nc(N3CCCCC3)nc(N3CCCCC3)n2)c1,"14.1 µM [rising, partial curve]",
O=C(Nc1nc(-c2cccs2)c(C(=O)C(F)(F)F)s1)c1ccco1,,"0.00794 µM [falling, full curve]"
Cc1ccc(C(=O)n2c(-c3ccccc3)cnc2SCC(=O)Nc2ccc(C)cc2C)cc1,"22.4 µM [rising, single point]","20 µM [rising, partial curve, poor fit]"
Cc1ccc(C(=O)/C=C/Nc2ccccc2C(N)=O)o1,"35.5 µM [rising, single point]",
O=C(COc1ccc2ccccc2c1)NNC(=O)Cc1cccc2ccccc12,,"20 µM [falling, single point]"
COc1ccc(C(=O)NCCNc2ccccc2[N+](=O)[O-])cc1,"8.91 µM [falling, partial curve, poor fit]","0.158 µM [falling, full curve, poor fit]"
O=C1Nc2c(Br)cc(Br)c3cccc1c23,"0.00631 µM [falling, full curve, poor fit]",
CCc1nc(Nc2ccc3c(c2)OCCO3)c2oc3ccccc3c2n1,"35.5 µM [rising, single point]","35.5 µM [rising, single point]"
CC1=NN(c2ccccc2)C(=O)/C1=C/C=C/c1ccccc1,,"17.8 µM [rising, partial curve, poor fit]"
Cc1nnc(SCC(=O)NC2CCS(=O)(=O)C2)n1Cc1ccccc1 (centres undefined),"0.0501 µM [falling, full curve, poor fit]",
CN1/C(=C\C(=O)C[n+]2ccc3ccccc3c2)C(C)(C)c2ccccc21,,"5.62 µM [rising, single point]"

# From PubChem BioAssay AID1487 (National Center for Advancing Translational Sciences (NCATS), 2009)
